PubChem BioAssay AID1259289 – Sanger Institute | 2017
Here is one part, drawn at random, of 794 reagents tested. In the full data, 16 (2%) are marked active. 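Active marks cell loss from silencing alone; drug synergy shows only in the synergy scores, not the calls.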 A number with no mark means an inactive call. Viability is capped at 1. Not stated in the record: the amount of reagent, the time to read-out.

- Screen: 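Find kinases whose loss adds to targeted drugs in killing bowel cancer cells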 (primary screen)
- System: human LS513 colorectal cancer cells
- Reagents: siRNA pool against human genes
- Challenge: anchor drug BYL719 at 1 µM, cetuximab at 5 µg/ml or trametinib at 10 nM, or DMSO vehicle alone; exposure time not given
- Measurement: 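Survival versus non-targeting pool for each arm averaged over replicates, robust z-score in the arm with DMSO only, and synergy scores for BYL719, cetuximab or trametinib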
- Reading the numbers: robust z-score, siRNA alone (DMSO): higher = more viable cells; strongly negative means essential; viability with DMSO vs control: higher = more viable cells; synergy score with BYL719: higher = stronger combined killing with BYL719; synergy score with cetuximab: higher = stronger combined killing with cetuximab; synergy score with trametinib: higher = stronger combined killing with trametinib
- Rule for the call: 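a gene counts as active if its DMSO-only robust z-score falls under -3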
- Meaning of the calls: active = essential (knock-down alone); inactive = not essential

no.	gene knocked down	robust z-score, siRNA alone (DMSO)	viability with DMSO vs control (fraction of control)	synergy score with BYL719	synergy score with cetuximab	synergy score with trametinib
1	CSF1R	-1.96	0.642	0.0442	0.062	0.0471
2	TBK1	0.188	0.947	0.0634	0.163	0.0616
3	CTCF	-0.809	0.806	-0.00338	0.0214	-0.0668
4	PRKY	-1.11	0.763	0.0457	0.0329	-0.00963
5	EFNB3	-1.15	0.757	0.0457	-0.0119	0.0161
6	ADPGK	0.561	1	0.00493	0.0275	-0.0136
7	MAP3K3	-0.508	0.848	0.0284	0.0983	0.0285
8	PDK2	-1.05	0.772	-0.00419	-0.00195	0.0106
9	DIS3	-1.31	0.734	-0.17	-0.283	-0.108
10	PRKD1	0.561	1	0.0809	-0.0705	-0.087
11	DAPK1	-1.54	0.702	0.318	0.0269	0.0318
12	PLK3	0.561	1	0.0839	-0.0968	-0.0461
13	PIKFYVE	0.561	1	-0.134	-0.0599	-0.00349
14	ZAP70	0.561	1	0.0439	0.139	0.0309
15	NME3	0.561	1	-0.0703	-0.0777	-0.0875
16	SMC1A	-0.0126	0.919	0.131	0.318	0.0611
17	NUAK2	0.561	1	0.0759	-0.00123	0.00434
18	PIP5KL1	0.561	1	-0.0197	0.0209	-0.0543
19	PRKACB	-0.57	0.84	-0.0829	-0.119	-0.0235
20	NF1	0.561	1	-0.134	-0.0968	-0.0529
21	MAP3K7	0.561	1	-0.0484	0.0206	0.0246
22	JAK2	0.561	1	-0.134	-0.0968	-0.0373
23	PKDCC	0.561	1	-0.134	-0.0968	0.0737
24	TRIB2	-1.92	0.648	-0.0974	0.0634	0.0479
25	TYK2	-2.4	0.579	0.105	0.0651	0.0218
26	RPS6KA1	0.561	1	0.0537	0.0883	0.0336
27	TAOK2	0.561	1	-0.12	-0.0287	0.0436
28	PTGS1	-0.681	0.824	0.186	0.0748	0.0367
29	SMAD4	-0.918	0.79	0.105	0.132	-0.171
30	CDC73	-1.45	0.714	-0.0994	-0.0708	-0.144
31	NEK9	0.28	0.96	-0.0862	0.0059	0.0574

A portion of the results above, for reference:
no.	gene knocked down	robust z-score, siRNA alone (DMSO)	viability with DMSO vs control (fraction of control)	synergy score with BYL719	synergy score with cetuximab	synergy score with trametinib
20	NF1	0.561	1	-0.134	-0.0968	-0.0529
21	MAP3K7	0.561	1	-0.0484	0.0206	0.0246
22	JAK2	0.561	1	-0.134	-0.0968	-0.0373
23	PKDCC	0.561	1	-0.134	-0.0968	0.0737
